{"sequences": {"note": "Chains of the proteins cited; added tags and fusions are not shown.", "UniProt P61006": "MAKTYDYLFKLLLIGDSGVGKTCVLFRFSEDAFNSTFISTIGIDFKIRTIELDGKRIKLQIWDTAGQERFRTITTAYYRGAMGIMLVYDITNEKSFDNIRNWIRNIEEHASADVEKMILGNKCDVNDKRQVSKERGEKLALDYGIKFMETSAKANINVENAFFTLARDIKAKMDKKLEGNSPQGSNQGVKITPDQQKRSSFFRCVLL"}, "source": "paper PMC5778812", "biological_target": "T1, GFP-Rabin8 (human) (UniProt Q96QF0)", "T1 sequence": "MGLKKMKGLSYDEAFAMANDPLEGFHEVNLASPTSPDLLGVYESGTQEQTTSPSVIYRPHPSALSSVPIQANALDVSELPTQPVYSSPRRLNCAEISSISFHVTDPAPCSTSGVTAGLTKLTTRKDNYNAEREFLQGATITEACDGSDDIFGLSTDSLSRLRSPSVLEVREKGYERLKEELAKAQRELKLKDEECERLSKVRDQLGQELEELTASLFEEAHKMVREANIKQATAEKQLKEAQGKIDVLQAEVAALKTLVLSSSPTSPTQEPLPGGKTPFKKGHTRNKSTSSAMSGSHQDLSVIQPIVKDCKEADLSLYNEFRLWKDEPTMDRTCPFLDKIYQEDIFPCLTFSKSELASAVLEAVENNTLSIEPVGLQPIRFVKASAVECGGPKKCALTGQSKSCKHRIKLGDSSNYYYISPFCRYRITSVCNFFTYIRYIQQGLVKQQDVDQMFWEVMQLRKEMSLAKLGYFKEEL", "experiment": "co-IP; HEK293T co-transfected with GFP-Rabin8 and flag-tagged Rab8a constructs; lysis in 50 mM Tris-HCl pH 7.6, 150 mM NaCl, 2 mM MgCl2, 1% Triton-X100, 1 mM DTT; 1 mg lysate immunoprecipitated with anti-GFP and protein G Sepharose at 4 °C; Western blot with anti-flag", "note": "Results are given in words; binding and its absence hold for the method and conditions named. Binding seen in cells or lysates may run through a third protein. Some binding calls cover weakened binding; strength is not graded here. Where a sequence is shown, tags or fusion partners need not be part of it.", "data": [{"substance": "3xFlag-Rab8a wildtype (from UniProt P61006 1-207)", "values": [{"measurement": "binding", "result": "binds"}]}]}
